Measured values as given in US6930088B2, “Conformationally constrained backbone cyclized somatostatin analogs” (Peptor Ltd., priority 1998, dated 2005).
Several values for one entry are separate records, joined by “and”; a condition that tells them apart may be missing. Equal entries are not always repeated. Part of at least one peptide drawing is inferred or uncertain, most often the ends. For at least one compound, name, drawing or mass did not settle the structure.

Legend:
[1] = system: growth hormone (GH) release; assay: In-vivo inhibition of growth hormone release; parameters: species or system Wistar male rats
Experimental: Inhibition of growth hormone (GH) release as a result of peptide administration was measured in Wistar male rats.
Adult male Wistar rats weighing 200-250 g, were maintained on a constant light-dark cycle (light from 8:00 to 20:00 h), temperature (21±3° C.), and relative humidity (55±10%). Laboratory chow and tap water were available ad libitum. On the day of the experiment, rats were anesthetized with Nembutal (IP, 60 mg/kg). Ten minutes after anesthesia, drugs were administered S.C. at 0.01-100 microgram/kg dose. Stimulation of GH was performed by I.V. administration of 0.5 g/kg of L-Arginine through femoral vein. Sampling was carried out following 5 minutes of stimulation, at 15 or 30 minutes after peptide administration. Blood samples were collected form abdominal vena-cava into tubes containing heparin (15 units per ml of blood) and centrifuged immediately. Plasma was separated and kept frozen at −20° C. until assayed. Rat growth hormone (rGH) [^125I] levels were determined by means of a radioimmunoassay kit (Amersham). The standard in this kit has been calibrated against a reference standard preparation (NIH-RP2) obtained from the National Institute of Diabetes and Digestive and Kidney Diseases. All samples were measured in duplicate.

[2] = system: growth hormone (GH) release; settings: reported by Bauer, et al.; cited from earlier work
[3] = system: Opiate receptors; assay: NovaScreen nonspecific binding, Opiate receptors; settings: tested at 100 nM; FIG. 2
Description: NovaScreen (Hanover, Md.) performed an assessment for nonspecific binding to various G-protein coupled receptor families. Binding studies to Neurokinin, Opiate and Muscarinic receptors were based on a comparison between the native hormone Somatostatin, Ocreotide and PTR 3173.

[4] = system: insulin release; settings: cited from earlier work
[5] = system: insulin release; assay: In-vivo effect on insulin release; parameters: species or system Wistar male rats
Experimental: Insulin stimulation was induced by IV bolus administration of D-glucose to overnight fasted rats.
An in-vivo determination of insulin release as a result of peptide administration was measured in Wistar male rats. […] Time course profiles for […] release under constant experimental conditions were measured.
Male Wistar rats were fasted overnight. Animals were anesthetized with Nembutal (IP, 60 mg/kg). Ten minutes after anesthesia, drugs were administrated S.C. at 0.01-100 microgram/kg dose 30 minutes before stimulation of insulin secretion performed by I.V. administration of 0.5 g/kg of D-glucose, 5 minutes before blood collection from abdominal Vena-cava. Hormone levels wer measured by RIA.

[6] = system: glucagon release; assay: In-vivo effect on glucagon release; parameters: species or system Wistar male rats
Experimental: In-vivo determination of the release of glucogon as a result of peptide administration was measured in Wistar male rats.
Time course profiles for glucagon release under constant experimental conditions were measured.
Male Wistar rats were fasted overnight. Animals were anesthetized with Nembutal (IP, 60 mg/kg). Ten minutes after anesthesia, drugs were administrated S.C. at 0.01-100 microgram/kg dose. Stimulation of glucagon secretion was performed by I.V. administration of L-arginine, 0.5 g/kg, 5 minutes before blood collection from portal vein. Hormone concentration was measured by RIA.

[7] = system: Opiate receptors; assay: Guinea-Pig Ileum met-Enkephalin-evoked twitch contraction; settings: preliminary results
[8] = Table 4, physiological selectivity

## C[C@@H](O)[C@@H]1NC(=O)[C@H](CCCCN)NC(=O)[C@@H](Cc2c[nH]c3ccccc23)NC(=O)[C@H](Cc2ccccc2)NC(=O)[C@@H](NC(=O)[C@H](N)Cc2ccccc2)CSSC[C@@H](C(=O)N[C@H](CO)[C@@H](C)O)NC1=O [Octreotide, reference compound]
[1]; [8]
  GH ID50: 0.08 µg/kg
[1]; group average, Table 10
  Plasma growth hormone concentration, Average: 0.50 ng/mL
[1]; individual values, Table 10
  Plasma growth hormone concentration: 0.61 ng/ml and 0.48 ng/ml and 0.56 ng/ml and 0.46 ng/ml and 0.43 ng/ml (2×)
[2]
  reported ED50, growth hormone release: approximately 0.1 micrograms per kilogram
[3]
  binding to Opiate receptors: significant high affinity
[4]; Table 4, Octreotide value equals the ED50 reported by Sandoz
  Insulin ID50: 26 µg/kg
[4]; reported by Sandoz
  ED50 reported by Sandoz, insulin release: 26 micrograms per kilogram
[5]; 100 micrograms per kilogram, D-glucose stimulation, FIG. 5a
  effect on insulin release: active inhibitors of insulin release
[5]; group average, Table 12
  Plasma insulin concentration, Average: 2.55 ng/mL
[5]; individual values, Table 12
  Plasma insulin concentration: 1.1 ng/mL and 3.5 ng/mL and 1.95 ng/mL and 3.7 ng/mL and 3.06 ng/mL and 2 ng/mL
[5]; ratio of ID50 values, Table 4
  GH/Insulin: 309
[6]; [8]
  Glucagon ID50: 0.65 µg/kg
[6]; group average, Table 11
  Plasma glucagon concentration, Average: 49.7 ng/mL
[6]; individual values, Table 11
  Plasma glucagon concentration: 20 ng/ml (2×) and 89 ng/ml and 62 ng/ml and 70 ng/ml and 37 ng/ml
[6]; ratio of ID50 values, Table 4
  GH Glucagon: 8
[7]
  effect on met-Enkephalin-evoked twitch contraction: Opiate antagonist
